Data as given in PubChem BioAssay AID1159584 (Peter MacCallum Cancer Centre, 2016)
Shown is a random part of about 18,000 deposited reagents. Further read-outs or replicates are left out here. Reagent sequences are not shown. The record does not give: the amount of reagent, the time to read-out.

- Purpose: 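Genes whose loss is lethal only together with E-cadherin loss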 (primary screen)
- System: human MCF10A breast epithelial cells, parental and CDH1-null
- Reagents: siRNA against human genes
- Measurement: 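Cell viability by CellTiter-Glo ATP luminescence, each line scaled to the mean of mock wells across plates, then CDH1-null over parental ratio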
- Direction: CDH1-null / parental viability ratio: higher = CDH1-null cells survive relatively better than parental; CDH1-null viability vs mock: higher = more viable CDH1-null cells
- Units: CDH1-null viability vs mock in fraction of mock

Silencing of KCNE3 resulted in: CDH1-null / parental viability ratio 1.39; CDH1-null viability vs mock 1.1.
POLRMT (RNA polymerase mitochondrial) gave CDH1-null / parental viability ratio 0.98; CDH1-null viability vs mock 1.
After knock-down of FGF10 (fibroblast growth factor 10) the results were CDH1-null / parental viability ratio 1.1; CDH1-null viability vs mock 0.9.
For OR4K14 (olfactory receptor family 4 subfamily K member 14) the deposit lists CDH1-null / parental viability ratio 0.71; CDH1-null viability vs mock 0.47.
SPATA8 (spermatogenesis associated 8) gave CDH1-null / parental viability ratio 1.24; CDH1-null viability vs mock 1.08.
Silencing of ZNF658 (zinc finger protein 658) gave: CDH1-null / parental viability ratio 1.01; CDH1-null viability vs mock 0.91.
Silencing of ITPK1 (inositol-tetrakisphosphate 1-kinase) resulted in: CDH1-null / parental viability ratio 0.55; CDH1-null viability vs mock 0.42.
For KCNC2 (potassium voltage-gated channel subfamily C member 2), the values are CDH1-null / parental viability ratio 1.14; CDH1-null viability vs mock 1.06.
Against CC2D1A (coiled-coil and C2 domain containing 1A) the deposit lists CDH1-null / parental viability ratio 0.96; CDH1-null viability vs mock 0.68.
After knock-down of OTUD7B (OTU deubiquitinase 7B) the results were CDH1-null / parental viability ratio 0.92; CDH1-null viability vs mock 0.92.
Against STAG3 (STAG3 cohesin complex component) the deposit lists CDH1-null / parental viability ratio 0.84; CDH1-null viability vs mock 0.57.
OR6C75 (olfactory receptor family 6 subfamily C member 75) showed CDH1-null / parental viability ratio 1.34; CDH1-null viability vs mock 1.19.
Silencing of CHMP2A (charged multivesicular body protein 2A) gave: CDH1-null / parental viability ratio 1.21; CDH1-null viability vs mock 0.29.
After knock-down of WDR86 (WD repeat domain 86) the results were CDH1-null / parental viability ratio 0.91; CDH1-null viability vs mock 0.88.
Knock-down of IGSF1 (immunoglobulin superfamily member 1) gave: CDH1-null / parental viability ratio 1.13; CDH1-null viability vs mock 0.93.
Knock-down of SLC30A4 resulted in: CDH1-null / parental viability ratio 0.77; CDH1-null viability vs mock 0.57.
After knock-down of CORO2B (coronin 2B) the results were CDH1-null / parental viability ratio 1.03; CDH1-null viability vs mock 0.78.
With knock-down of LHX3 (LIM homeobox 3) the results were CDH1-null / parental viability ratio 1.05; CDH1-null viability vs mock 0.78.
With knock-down of ZNHIT2 (zinc finger HIT-type containing 2), the record shows CDH1-null / parental viability ratio 1.07; CDH1-null viability vs mock 0.64.
Depletion of ABCG2 (ATP binding cassette subfamily G member 2 (JR blood group)) came out at: CDH1-null / parental viability ratio 1.06; CDH1-null viability vs mock 1.02.
Against SLC6A13 the deposit lists CDH1-null / parental viability ratio 1.14; CDH1-null viability vs mock 0.82.
With knock-down of RNF8 (ring finger protein 8), the record shows CDH1-null / parental viability ratio 1.02; CDH1-null viability vs mock 1.
Knock-down of MAP6 (microtubule associated protein 6) came out at: CDH1-null / parental viability ratio 0.84; CDH1-null viability vs mock 0.54.
With knock-down of GLIS1 (GLIS family zinc finger 1) the results were CDH1-null / parental viability ratio 1.08; CDH1-null viability vs mock 0.82.
MBD6 (methyl-CpG binding domain protein 6) scored CDH1-null / parental viability ratio 0.98; CDH1-null viability vs mock 1.08.
After knock-down of MICU3 (mitochondrial calcium uptake 3), the screen gave CDH1-null / parental viability ratio 1.22; CDH1-null viability vs mock 1.16.
After knock-down of CDC16 (cell division cycle 16), the record shows CDH1-null / parental viability ratio 0.88; CDH1-null viability vs mock 0.58.
With knock-down of PIANP (PILR alpha associated neural protein) the results were CDH1-null / parental viability ratio 0.79; CDH1-null viability vs mock 0.6.
With knock-down of NR4A2 (nuclear receptor subfamily 4 group A member 2), the screen gave CDH1-null / parental viability ratio 0.81; CDH1-null viability vs mock 0.6.
For MAP2K3 (mitogen-activated protein kinase kinase 3), the entry reads CDH1-null / parental viability ratio 1.14; CDH1-null viability vs mock 0.73.
Against LTBR (lymphotoxin beta receptor), the entry reads CDH1-null / parental viability ratio 1.13; CDH1-null viability vs mock 0.68.
Against TMIGD1 (transmembrane and immunoglobulin domain containing 1), the values are CDH1-null / parental viability ratio 1.03; CDH1-null viability vs mock 0.64.
After knock-down of PTGER3 (prostaglandin E receptor 3), the record shows CDH1-null / parental viability ratio 0.84; CDH1-null viability vs mock 0.88.
BABAM1 (BRISC and BRCA1 A complex member 1) gave CDH1-null / parental viability ratio 1.09; CDH1-null viability vs mock 0.94.
With knock-down of DNAH2 (dynein axonemal heavy chain 2) the results were CDH1-null / parental viability ratio 0.87; CDH1-null viability vs mock 0.8.
Silencing of PNLIPRP3 (pancreatic lipase related protein 3) resulted in: CDH1-null / parental viability ratio 1.03; CDH1-null viability vs mock 0.76.
Knock-down of OR6B2 (olfactory receptor family 6 subfamily B member 2) gave: CDH1-null / parental viability ratio 1.32; CDH1-null viability vs mock 0.29.
Knock-down of TMEM63B (transmembrane protein 63B) came out at: CDH1-null / parental viability ratio 0.9; CDH1-null viability vs mock 0.37.
With knock-down of VMA12 (vacuolar ATPase assembly factor VMA12), the record shows CDH1-null / parental viability ratio 0.78; CDH1-null viability vs mock 0.52.
For MAGED4B (MAGE family member D4B), the values are CDH1-null / parental viability ratio 1.04; CDH1-null viability vs mock 0.94.
With knock-down of CASTOR1 (cytosolic arginine sensor for mTORC1 subunit 1) the results were CDH1-null / parental viability ratio 1.24; CDH1-null viability vs mock 0.94.
Against SCT (secretin) the deposit lists CDH1-null / parental viability ratio 1.18; CDH1-null viability vs mock 0.52.
Knock-down of KLHL30 (kelch like family member 30) gave: CDH1-null / parental viability ratio 0.89; CDH1-null viability vs mock 0.66.
UNC50 (unc-50 inner nuclear membrane RNA binding protein) scored CDH1-null / parental viability ratio 0.94; CDH1-null viability vs mock 0.84.
After knock-down of MEGF8 (multiple EGF like domains 8), the record shows CDH1-null / parental viability ratio 1.02; CDH1-null viability vs mock 0.86.

4 entries already listed, sorted by “CDH1-null viability vs mock”, highest first:
DNAH2 (dynein axonemal heavy chain 2) | CDH1-null / parental viability ratio: 0.87; CDH1-null viability vs mock: 0.8
PNLIPRP3 (pancreatic lipase related protein 3) | CDH1-null / parental viability ratio: 1.03; CDH1-null viability vs mock: 0.76
TMEM63B (transmembrane protein 63B) | CDH1-null / parental viability ratio: 0.9; CDH1-null viability vs mock: 0.37
OR6B2 (olfactory receptor family 6 subfamily B member 2) | CDH1-null / parental viability ratio: 1.32; CDH1-null viability vs mock: 0.29
